Results reported in US20190276511A1 (BIONTECH RNA PHARMACEUTICALS, published 2019).
No constants are given. Whether binding was seen depends on the method and setting. Some results given as binding are weak or reduced against the parent protein; the word gives no strength. For some of these results: Sequences can lack the tags named with a protein.

The chains behind the UniProt entries cited, without tags or fusion partners. Where a name states a change or a piece, a line headed by the entry shows the natural chain unless it says otherwise.
UniProt Q07011: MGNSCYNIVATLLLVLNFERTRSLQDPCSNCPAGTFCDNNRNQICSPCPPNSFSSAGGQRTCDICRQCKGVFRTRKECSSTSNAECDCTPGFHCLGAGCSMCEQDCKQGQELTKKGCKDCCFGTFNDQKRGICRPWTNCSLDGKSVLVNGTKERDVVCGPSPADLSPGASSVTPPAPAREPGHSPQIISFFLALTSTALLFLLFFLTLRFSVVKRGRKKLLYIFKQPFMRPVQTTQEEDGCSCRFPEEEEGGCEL
UniProt P25942: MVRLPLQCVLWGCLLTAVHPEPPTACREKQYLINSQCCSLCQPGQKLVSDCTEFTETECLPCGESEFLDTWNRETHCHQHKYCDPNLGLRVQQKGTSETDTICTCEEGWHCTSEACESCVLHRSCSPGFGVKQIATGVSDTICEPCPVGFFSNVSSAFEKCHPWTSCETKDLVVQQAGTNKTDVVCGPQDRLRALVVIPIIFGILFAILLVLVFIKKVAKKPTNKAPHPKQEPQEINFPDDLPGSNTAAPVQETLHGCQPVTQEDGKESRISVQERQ

Experiments:
4-1BB-Fc [1] = biological target: T1, 4-1BB-Fc (human, UniProt Q07011 24-186); assay: ELISA, coated receptor-Fc
T1 construct: extracellular domain; hinge included for covalent assembly; also called 4-1BB receptor-Fc fusion protein; not shown: human Fc gamma 1 region including the hinge region

CD27-Fc [2] = biological target: T2, CD27-Fc (human, UniProt P26842 20-191); assay: ELISA, coated receptor-Fc
T2 construct: extracellular domain; hinge included for covalent assembly; also called CD27 receptor-Fc fusion protein; not shown: human Fc gamma 1 region including the hinge region
T2 sequence (looked up): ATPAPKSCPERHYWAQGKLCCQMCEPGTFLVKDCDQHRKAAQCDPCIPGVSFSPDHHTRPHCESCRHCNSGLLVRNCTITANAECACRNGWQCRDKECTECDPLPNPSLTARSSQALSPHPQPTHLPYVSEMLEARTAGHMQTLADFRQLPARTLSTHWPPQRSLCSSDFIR

4-1BB-Fc [3] = biological target: T1, 4-1BB-Fc; assay: flow cytometry, soluble receptor-Fc (10 nM) on cell-bound scDuokine
CD27-Fc [4] = biological target: T2, CD27-Fc; assay: as above
4-1BB-Fc [5] = biological target: T1, 4-1BB-Fc; assay: ELISA titration from 316 nM
CD27-Fc [6] = biological target: T2, CD27-Fc; assay: ELISA titration from 316 nM
4-1BB-Fc [7] = biological target: T1, 4-1BB-Fc; assay: ELISA, 100 nM, immobilized receptor-Fc
CD27-Fc [8] = biological target: T2, CD27-Fc; assay: ELISA, 100 nM, immobilized receptor-Fc
[9] = biological target: CD27 receptor on cells (human) (UniProt P26842); assay: flow cytometry, receptor on HT1080 cells, second receptor-Fc for detection
4-1BB receptor on cells [10] = biological target: T3, 4-1BB receptor on cells (human, UniProt Q07011 24-255); assay: as above
[11] = biological target: CD27 receptor on cells (human) (UniProt P26842); assay: flow cytometry, HT1080 transfectants, 100 nM
4-1BB receptor on cells [12] = biological target: T3, 4-1BB receptor on cells; assay: flow cytometry, HT1080 transfectants, 100 nM
CD40-Fc [13] = biological target: T4, CD40-Fc (human, UniProt P25942 21-193); assay: ELISA, coated receptor-Fc
T4 construct: extracellular domain; hinge included for covalent assembly; also called CD40 receptor-Fc fusion protein; not shown: human Fc gamma 1 region including the hinge region

OX40-Fc [14] = biological target: T5, OX40-Fc (human, UniProt P43489 29-214); assay: ELISA, coated receptor-Fc
T5 construct: extracellular domain; hinge included for covalent assembly; also called OX40 receptor-Fc fusion protein; not shown: human Fc gamma 1 region including the hinge region
T5 sequence (looked up): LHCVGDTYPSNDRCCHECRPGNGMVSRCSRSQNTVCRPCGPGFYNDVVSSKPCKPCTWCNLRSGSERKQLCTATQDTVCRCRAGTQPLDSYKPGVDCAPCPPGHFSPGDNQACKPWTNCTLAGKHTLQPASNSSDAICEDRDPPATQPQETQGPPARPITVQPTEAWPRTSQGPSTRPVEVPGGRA

CD40-Fc [15] = biological target: T4, CD40-Fc; assay: flow cytometry, soluble receptor-Fc (10 nM) on cell-bound scDuokine
OX40-Fc [16] = biological target: T5, OX40-Fc; assay: as above
CD40-Fc [17] = biological target: T4, CD40-Fc; assay: ELISA titration from 316 nM
OX40-Fc [18] = biological target: T5, OX40-Fc; assay: ELISA titration from 316 nM
CD40-Fc [19] = biological target: T4, CD40-Fc; assay: ELISA, 100 nM, immobilized receptor-Fc
OX40-Fc [20] = biological target: T5, OX40-Fc; assay: ELISA, 100 nM, immobilized receptor-Fc
OX40 receptor on cells [21] = biological target: T6, OX40 receptor on cells (human, UniProt P43489 29-277); assay: flow cytometry, receptor on HT1080 cells, second receptor-Fc for detection
T6 sequence (looked up): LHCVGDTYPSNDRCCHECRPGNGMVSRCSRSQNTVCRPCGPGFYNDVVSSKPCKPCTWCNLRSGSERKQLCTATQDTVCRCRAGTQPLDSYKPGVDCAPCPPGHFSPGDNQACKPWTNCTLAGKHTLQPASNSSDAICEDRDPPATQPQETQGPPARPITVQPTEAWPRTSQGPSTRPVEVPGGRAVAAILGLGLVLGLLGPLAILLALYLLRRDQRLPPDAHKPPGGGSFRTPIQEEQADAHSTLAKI

CD40 receptor on cells [22] = biological target: T7, CD40 receptor on cells (human, UniProt P25942 21-277); assay: as above
OX40 receptor on cells [23] = biological target: T6, OX40 receptor on cells; assay: flow cytometry, HT1080 transfectants, 100 nM
CD40 receptor on cells [24] = biological target: T7, CD40 receptor on cells; assay: flow cytometry, HT1080 transfectants, 100 nM
CD40 receptor on cells [25] = biological target: T7, CD40 receptor on cells; assay: flow cytometry on human PBMC, 10 nM, FLAG detection; CD40 on B cells

Measured: binding

B1: scCD27L-sc4-1BBL (ligand)
chain: SLGWDVAELQLNHTGPQQDPRLYWQGGPALGRSFLHGPELDKGQLRIHRDGIYMVHIQVTLAICSSTTASRHHPTTLAVGICSPASRSISLLRLSFHQGCTIASQRLTPLARGDTLCTNLTGTLLPSRNTDETFFGVQWVRPGGGSGGGSLGWDVAELQLNHTGPQQDPRLYWQGGPALGRSFLHGPELDKGQLRIHRDGIYMVHIQVTLAICSSTTASRHHPTTLAVGICSPASRSISLLRLSFHQGCTIASQRLTPLARGDTLCTNLTGTLLPSRNTDETFFGVQWVRPGGGSGGGSLGWDVAELQLNHTGPQQDPRLYWQGGPALGRSFLHGPELDKGQLRIHRDGIYMVHIQVTLAICSSTTASRHHPTTLAVGICSPASRSISLLRLSFHQGCTIASQRLTPLARGDTLCTNLTGTLLPSRNTDETFFGVQWVRPGGGGSGGGTGGGGSREGPELSPDDPAGLLDLRQGMFAQLVAQNVLLIDGPLSWYSDPGLAGVSLTGGLSYKEDTKELVVAKAGVYYVFFQLELRRVVAGEGSGSVSLALHLQPLRSAAGAAALALTVDLPPASSEARNSAFGFQGRLLHLSAGQRLGVHLHTEARARHAWQLTQGATVLGLFRVTPEIPAGLPSPRSEGGGGSGGGGSGGGGSREGPELSPDDPAGLLDLRQGMFAQLVAQNVLLIDGPLSWYSDPGLAGVSLTGGLSYKEDTKELVVAKAGVYYVFFQLELRRVVAGEGSGSVSLALHLQPLRSAAGAAALALTVDLPPASSEARNSAFGFQGRLLHLSAGQRLGVHLHTEARARHAWQLTQGATVLGLFRVTPEIPAGLPSPRSEGGGGSGGGGSGGGGSREGPELSPDDPAGLLDLRQGMFAQLVAQNVLLIDGPLSWYSDPGLAGVSLTGGLSYKEDTKELVVAKAGVYYVFFQLELRRVVAGEGSGSVSLALHLQPLRSAAGAAALALTVDLPPASSEARNSAFGFQGRLLHLSAGQRLGVHLHTEARARHAWQLTQGATVLGLFRVTPEIPAGLPSPRSE
notes: scDuokine from HEK293; VH leader left out; also called single-chain Duokine scCD27L-sc4-1BBL; not shown: N-terminal FLAG tag
binds: 4-1BB-Fc [1] | CD27-Fc [2] | 4-1BB-Fc [3] | CD27-Fc [4] | 4-1BB-Fc [5] | CD27-Fc [6] | 4-1BB-Fc [7] | CD27-Fc [8] | [9] | 4-1BB receptor on cells [10] | [11] | 4-1BB receptor on cells [12]

B2: scOX40L-scCD40L (ligand)
chain: QVSHRYPRIQSIKVQFTEYKKEKGFILTSQKEDEIMKVQNNSVIINCDGFYLISLKGYFSQEVNISLHYQKDEEPLFQLKKVRSVNSLMVASLTYKDKVYLNVTTDNTSLDDFHVNGGELILIHQNPGEFCVLGGGSGGGQVSHRYPRIQSIKVQFTEYKKEKGFILTSQKEDEIMKVQNNSVIINCDGFYLISLKGYFSQEVNISLHYQKDEEPLFQLKKVRSVNSLMVASLTYKDKVYLNVTTDNTSLDDFHVNGGELILIHQNPGEFCVLGGGSGGGQVSHRYPRIQSIKVQFTEYKKEKGFILTSQKEDEIMKVQNNSVIINCDGFYLISLKGYFSQEVNISLHYQKDEEPLFQLKKVRSVNSLMVASLTYKDKVYLNVTTDNTSLDDFHVNGGELILIHQNPGEFCVLGGGGSGGGTGGGGSGDQNPQIAAHVISEASSKTTSVLQWAEKGYYTMSNNLVTLENGKQLTVKRQGLYYIYAQVTFCSNREASSQAPFIASLCLKSPGRFERILLRAANTHSSAKPCGQQSIHLGGVFELQPGASVFVNVTDPSQVSHGTGFTSFGLLKLGGGSGGGGDQNPQIAAHVISEASSKTTSVLQWAEKGYYTMSNNLVTLENGKQLTVKRQGLYYIYAQVTFCSNREASSQAPFIASLCLKSPGRFERILLRAANTHSSAKPCGQQSIHLGGVFELQPGASVFVNVTDPSQVSHGTGFTSFGLLKLGGGSGGGGDQNPQIAAHVISEASSKTTSVLQWAEKGYYTMSNNLVTLENGKQLTVKRQGLYYIYAQVTFCSNREASSQAPFIASLCLKSPGRFERILLRAANTHSSAKPCGQQSIHLGGVFELQPGASVFVNVTDPSQVSHGTGFTSFGLLKL
notes: scDuokine from HEK293, FLAG-purified; VH leader left out; also called single-chain Duokine scOX40L-scCD40L; not shown: N-terminal FLAG tag
binds: CD40-Fc [13] | OX40-Fc [14] | CD40-Fc [15] | OX40-Fc [16] | CD40-Fc [17] | OX40-Fc [18] | CD40-Fc [19] | OX40-Fc [20] | OX40 receptor on cells [21] | CD40 receptor on cells [22] | OX40 receptor on cells [23] | CD40 receptor on cells [24] | CD40 receptor on cells [25]

B3: scOX40L-sc4-1BBL (ligand)
chain: QVSHRYPRIQSIKVQFTEYKKEKGFILTSQKEDEIMKVQNNSVIINCDGFYLISLKGYFSQEVNISLHYQKDEEPLFQLKKVRSVNSLMVASLTYKDKVYLNVTTDNTSLDDFHVNGGELILIHQNPGEFCVLGGGSGGGQVSHRYPRIQSIKVQFTEYKKEKGFILTSQKEDEIMKVQNNSVIINCDGFYLISLKGYFSQEVNISLHYQKDEEPLFQLKKVRSVNSLMVASLTYKDKVYLNVTTDNTSLDDFHVNGGELILIHQNPGEFCVLGGGSGGGQVSHRYPRIQSIKVQFTEYKKEKGFILTSQKEDEIMKVQNNSVIINCDGFYLISLKGYFSQEVNISLHYQKDEEPLFQLKKVRSVNSLMVASLTYKDKVYLNVTTDNTSLDDFHVNGGELILIHQNPGEFCVLGGGGSGGGTGGGGSREGPELSPDDPAGLLDLRQGMFAQLVAQNVLLIDGPLSWYSDPGLAGVSLTGGLSYKEDTKELVVAKAGVYYVFFQLELRRVVAGEGSGSVSLALHLQPLRSAAGAAALALTVDLPPASSEARNSAFGFQGRLLHLSAGQRLGVHLHTEARARHAWQLTQGATVLGLFRVTPEIPAGLPSPRSEGGGGSGGGGSGGGGSREGPELSPDDPAGLLDLRQGMFAQLVAQNVLLIDGPLSWYSDPGLAGVSLTGGLSYKEDTKELVVAKAGVYYVFFQLELRRVVAGEGSGSVSLALHLQPLRSAAGAAALALTVDLPPASSEARNSAFGFQGRLLHLSAGQRLGVHLHTEARARHAWQLTQGATVLGLFRVTPEIPAGLPSPRSEGGGGSGGGGSGGGGSREGPELSPDDPAGLLDLRQGMFAQLVAQNVLLIDGPLSWYSDPGLAGVSLTGGLSYKEDTKELVVAKAGVYYVFFQLELRRVVAGEGSGSVSLALHLQPLRSAAGAAALALTVDLPPASSEARNSAFGFQGRLLHLSAGQRLGVHLHTEARARHAWQLTQGATVLGLFRVTPEIPAGLPSPRSE
notes: scDuokine from HEK293; VH leader left out; also called single-chain Duokine scOX40L-sc4-1BBL; not shown: N-terminal FLAG tag
binds: OX40-Fc [14] | 4-1BB-Fc [1] | OX40-Fc [16] | 4-1BB-Fc [3] | OX40-Fc [18] | 4-1BB-Fc [5] | OX40-Fc [20] | 4-1BB-Fc [7] | OX40 receptor on cells [21] | 4-1BB receptor on cells [10] | OX40 receptor on cells [23] | 4-1BB receptor on cells [12]
